Experimental data: PubChem BioAssay AID1671195 (Yale University, 2021)

Screen: 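Genes whose knockdown alters LDL uptake in liver cancer cells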 (primary screen)
Cell system: human Huh7 hepatoma cells
Reagents: siRNA pool against human genes, 18 nM
Duration: about 2 to 2.5 days of knockdown, then 8 h LDL uptake
Challenge: DiI-labelled LDL at 30 µg/ml for 8 h, in lipoprotein-deficient serum medium
Measurement: 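Fluorescent LDL signal imaged in cells, scaled to the plate median, robust z-score for each replicate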
Scale: robust z-score: higher = more LDL uptake after knockdown
Call rule: 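Active when two or more replicates show a robust z-score above 2 or below -2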
The deposit covers about 22,000 reagents; below is a part drawn at random. About 1,510 of all reagents (6.9%) count as active. 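Active includes knockdowns raising or lowering LDL uptake; positive z-scores mean more uptake, negative mean less.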 The numbers tell different reagents against one gene apart.

| gene | pool no. | robust z-score, replicate 1 | robust z-score, replicate 2 | robust z-score, replicate 3 | outcome |
| --- | --- | --- | --- | --- | --- |
| LOC440954 (retired record) | 1 | 0.0257 | 0.568 | 1.02 | inactive |
| GRIN2C | 1 | -0.946 | -0.928 | -0.603 | inactive |
| FMO9P | 1 | 0.824 | 0.265 | 0.548 | inactive |
| CXCL9 | 1 | -0.0637 | -0.0017 | -0.378 | inactive |
| MEP1A | 1 | -0.326 | -0.449 | -0.0171 | inactive |
| LYN | 1 | -1.03 | -0.304 | -0.732 | inactive |
| ARL4C | 1 | -0.496 | -0.855 | -0.767 | inactive |
| SETD6 | 1 | -0.749 | -1.14 | -1.18 | inactive |
| MCHR2 | 1 | -0.967 | -0.614 | -0.559 | inactive |
| NCAPD3 | 1 | -0.418 | -0.233 | -0.61 | inactive |
| LOC392314 (retired record) | 1 | -0.397 | 0.0656 | 0.0448 | inactive |
| MAN1A1 | 1 | -0.585 | -0.534 | -1.1 | inactive |
| SIX6 | 1 | 0.00374 | 0.0109 | -0.347 | inactive |
| KCNG1 | 1 | 0.36 | 0.361 | 0.422 | inactive |
| GIMAP2 | 1 | 0.784 | 1.49 | 1.73 | inactive |
| VPS35 | 1 | 0.735 | 0.285 | 0.212 | inactive |
| WDR45 | 1 | 0.683 | 0.213 | -0.34 | inactive |
| DOCK7 | 1 | 0.256 | 0.969 | 0.235 | inactive |
| DLK1 | 1 | -1.57 | -1.48 | -2.12 | inactive |
| HEATR5B | 1 | 0.57 | 0.564 | 0.82 | inactive |
| LOC285711 (retired record) | 1 | -0.925 | -0.714 | -0.659 | inactive |
| DUSP21 | 1 | -1.85 | -2.11 | -2.19 | active |
| TBC1D9 | 1 | -1.06 | -1.4 | -1.47 | inactive |
| LOC441354 (retired record) | 1 | -0.684 | -0.949 | -1.17 | inactive |
| PGM2L1 | 1 | -0.73 | -0.846 | -1.14 | inactive |
| PPP6C | 1 | 1.83 | 0.358 | 1.23 | inactive |
| MAGOHB | 1 | -1.55 | 0.88 | -1.75 | inactive |
| NKX2-8 | 1 | 0.252 | 0.486 | 0.59 | inactive |
| LINC00895 | 1 | -1.19 | -1.26 | -1.04 | inactive |
| NOP14 | 1 | 4.7 | 0.771 | 3.14 | inactive |
| BAZ2A | 1 | 0.0207 | 2.47 | 0.837 | inactive |
| RNF17 | 1 | -2.06 | -0.0809 | -0.56 | inactive |
| RNF17 | 2 | -0.646 | -0.942 | -1.29 | inactive |
| CEP170B | 1 | 0.335 | -0.158 | -0.132 | inactive |
| LINC02893 | 1 | 1.27 | 0.931 | 1.43 | inactive |
| ZNF114 | 1 | -0.694 | -1.29 | -1.36 | inactive |
| LOC388684 (retired record) | 1 | 0.24 | -0.0199 | -0.379 | inactive |
| KCNMB4 | 1 | 1.3 | 0.229 | 1.5 | inactive |
| RAPGEF3 | 1 | -1.22 | -1.51 | -1.46 | inactive |
| LINC00313 | 1 | 1.05 | 1.25 | 1.21 | inactive |
| RNF128 | 1 | -1.52 | -1.95 | -1.29 | inactive |
| RTRAF | 1 | -0.934 | 2.04 | 0.241 | inactive |
| TGFB3 | 1 | -0.162 | -0.496 | -1.16 | inactive |
| S100P | 1 | 0.149 | 0.23 | 0.0547 | inactive |

Records listed so far whose gene name starts with K or k (2):
| gene | pool no. | robust z-score, replicate 1 | robust z-score, replicate 2 | robust z-score, replicate 3 | outcome |
| --- | --- | --- | --- | --- | --- |
| KCNG1 | 1 | 0.36 | 0.361 | 0.422 | inactive |
| KCNMB4 | 1 | 1.3 | 0.229 | 1.5 | inactive |

Additional reagents:
| gene | pool no. | robust z-score, replicate 1 | robust z-score, replicate 2 | robust z-score, replicate 3 | outcome |
| --- | --- | --- | --- | --- | --- |
| CHRNB2 | 1 | 0.929 | 0.514 | 0.437 | inactive |
| EIF4EBP2 | 1 | 0.986 | 2.75 | 0.818 | inactive |
| CSN2 | 1 | 1.73 | 1.72 | 0.704 | inactive |
| FDPSP7 | 1 | 5.66 | 5.14 | 5.68 | active |
| TGM3 | 1 | 0.292 | 0.0811 | 0.418 | inactive |
| ASF1B | 1 | 1.51 | 2.29 | 1.88 | inactive |
| LOC442065 (retired record) | 1 | -2.26 | -2.54 | -2.38 | active |
| CX3CL1 | 1 | 1.36 | -0.0246 | -0.0761 | inactive |
| SOS1 | 1 | -0.856 | -1.63 | -0.904 | inactive |
| SPRYD4 | 1 | -0.919 | -0.905 | -0.878 | inactive |
| VPS13B | 1 | -1.51 | -0.557 | -1.78 | inactive |
| ACER1 | 1 | -0.748 | -1.2 | -1.08 | inactive |
| DHX30 | 1 | 1.28 | 0.661 | 0.383 | inactive |
| LOC389425 (retired record) | 1 | 0.733 | 0.381 | 0.558 | inactive |
| TNK1 | 1 | -0.659 | -0.602 | -0.19 | inactive |
| PML | 1 | -0.449 | 0.813 | 1.33 | inactive |
| MB | 1 | -0.665 | -0.846 | -0.829 | inactive |
| EPHX2 | 1 | -1.25 | -0.704 | -0.965 | inactive |
| S100A9 | 1 | -0.387 | -0.414 | -0.271 | inactive |
| OR10J3 | 1 | 0.471 | -0.078 | 0.673 | inactive |
| RPL37A | 1 | -0.82 | -0.937 | -0.408 | inactive |
| LRRC58 | 1 | 0.502 | 1.75 | 1.18 | inactive |
| STMN3 | 1 | -0.662 | -1.41 | 0.515 | inactive |
| LOC388496 (retired record) | 1 | -0.142 | -0.194 | 0.0208 | inactive |
| LOC390812 (retired record) | 1 | -0.782 | -0.685 | -0.775 | inactive |
| OR11G2 | 1 | 1.55 | 1.58 | 1.46 | inactive |
| CLK4 | 1 | -0.192 | 0.294 | 0.0757 | inactive |
| LINC01940 | 1 | 0.753 | 0.935 | 1.5 | inactive |
| IGF2BP2 | 1 | 0.653 | -0.325 | -0.31 | inactive |
| B4GALT5 | 1 | -0.391 | -0.13 | -0.111 | inactive |
| SLC35E3 | 1 | -1.07 | -0.338 | -0.588 | inactive |
| VIP | 1 | 0.0338 | -0.255 | 0.334 | inactive |
| PLXNB3 | 1 | 1.2 | 1.52 | 0.341 | inactive |
| NRN1L | 1 | 1.89 | 4.26 | 4.1 | active |
| FAM124B | 1 | 1.31 | 0.313 | 0.813 | inactive |
| SLC39A13 | 1 | -1.21 | -0.956 | -0.641 | inactive |
| CAMK1G | 1 | -0.179 | 1.17 | 1.46 | inactive |
| RNF41 | 1 | -0.0234 | -0.692 | -0.717 | inactive |
| PARP12 | 1 | -0.796 | -0.719 | 0.493 | inactive |
| LOC442279 (retired record) | 1 | 0.336 | -0.0608 | 0.348 | inactive |
| HMGB2 | 1 | -0.19 | -1.02 | 0.167 | inactive |
| HTATIP2 | 1 | -0.0672 | -0.229 | -0.619 | inactive |
| ZPR1 | 1 | 0.799 | 1.34 | 1.24 | inactive |
